Measured values published in the supplement of paper PMC6411743.
± gives the standard deviation of the averaged measurements. This is one part of the list.

By UniProt entry, the sequences of proteins in these tests, tags left out. Where a name states a change or a piece, a line headed by the entry shows the natural chain unless it says otherwise.
UniProt Q8NEJ9: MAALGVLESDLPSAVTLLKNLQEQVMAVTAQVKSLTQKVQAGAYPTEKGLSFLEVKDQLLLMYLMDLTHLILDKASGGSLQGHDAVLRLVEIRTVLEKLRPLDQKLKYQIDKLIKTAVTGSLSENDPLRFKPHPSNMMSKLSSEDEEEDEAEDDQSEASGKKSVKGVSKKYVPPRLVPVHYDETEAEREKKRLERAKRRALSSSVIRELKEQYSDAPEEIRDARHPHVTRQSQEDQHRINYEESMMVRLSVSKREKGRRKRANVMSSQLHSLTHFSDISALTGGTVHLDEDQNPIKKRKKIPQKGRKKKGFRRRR
UniProt Q9P035: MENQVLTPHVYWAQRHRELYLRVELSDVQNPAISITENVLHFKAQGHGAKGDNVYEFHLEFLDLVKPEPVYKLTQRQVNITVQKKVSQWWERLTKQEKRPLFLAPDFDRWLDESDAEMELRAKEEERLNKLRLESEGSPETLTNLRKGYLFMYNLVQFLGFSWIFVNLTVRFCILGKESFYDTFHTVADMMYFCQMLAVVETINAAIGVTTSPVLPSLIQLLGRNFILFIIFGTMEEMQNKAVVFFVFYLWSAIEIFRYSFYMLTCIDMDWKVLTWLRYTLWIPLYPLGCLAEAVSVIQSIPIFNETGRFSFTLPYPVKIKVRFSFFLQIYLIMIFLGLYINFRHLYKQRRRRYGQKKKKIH
UniProt Q96AC1: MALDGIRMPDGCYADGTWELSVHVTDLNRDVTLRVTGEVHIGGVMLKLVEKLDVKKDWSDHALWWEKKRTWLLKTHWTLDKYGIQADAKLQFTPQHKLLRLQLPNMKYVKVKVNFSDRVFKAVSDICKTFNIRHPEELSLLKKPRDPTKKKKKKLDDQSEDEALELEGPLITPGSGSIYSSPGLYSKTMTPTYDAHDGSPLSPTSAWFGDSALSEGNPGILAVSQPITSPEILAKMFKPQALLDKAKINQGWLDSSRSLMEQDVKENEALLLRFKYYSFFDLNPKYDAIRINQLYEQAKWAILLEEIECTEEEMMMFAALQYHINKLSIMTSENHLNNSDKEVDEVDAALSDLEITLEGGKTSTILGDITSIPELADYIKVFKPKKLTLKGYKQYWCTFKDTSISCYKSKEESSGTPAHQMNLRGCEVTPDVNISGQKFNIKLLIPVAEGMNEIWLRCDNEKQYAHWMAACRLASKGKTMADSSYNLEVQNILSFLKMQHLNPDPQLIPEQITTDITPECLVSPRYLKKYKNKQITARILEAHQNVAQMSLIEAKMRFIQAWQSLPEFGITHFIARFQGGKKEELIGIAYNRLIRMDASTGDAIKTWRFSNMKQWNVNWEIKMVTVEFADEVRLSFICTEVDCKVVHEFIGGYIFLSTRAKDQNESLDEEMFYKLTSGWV
UniProt P47736: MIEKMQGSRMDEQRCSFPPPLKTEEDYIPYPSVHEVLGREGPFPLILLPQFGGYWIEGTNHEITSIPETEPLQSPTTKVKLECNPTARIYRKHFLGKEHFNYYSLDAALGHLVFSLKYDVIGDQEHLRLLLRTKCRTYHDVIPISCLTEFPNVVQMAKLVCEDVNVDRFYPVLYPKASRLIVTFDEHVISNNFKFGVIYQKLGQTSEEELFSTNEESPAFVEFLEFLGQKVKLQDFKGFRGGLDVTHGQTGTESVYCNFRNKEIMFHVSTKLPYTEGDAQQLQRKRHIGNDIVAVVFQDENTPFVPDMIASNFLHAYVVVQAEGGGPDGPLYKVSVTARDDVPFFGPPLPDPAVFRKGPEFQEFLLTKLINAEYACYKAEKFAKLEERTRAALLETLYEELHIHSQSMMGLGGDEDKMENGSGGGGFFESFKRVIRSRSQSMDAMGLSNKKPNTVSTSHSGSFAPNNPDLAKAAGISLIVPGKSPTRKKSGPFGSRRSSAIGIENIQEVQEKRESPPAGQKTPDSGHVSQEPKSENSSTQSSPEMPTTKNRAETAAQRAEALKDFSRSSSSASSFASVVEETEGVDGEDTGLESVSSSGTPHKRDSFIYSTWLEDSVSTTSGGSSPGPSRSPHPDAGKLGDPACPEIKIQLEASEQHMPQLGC
UniProt Q8IZH2: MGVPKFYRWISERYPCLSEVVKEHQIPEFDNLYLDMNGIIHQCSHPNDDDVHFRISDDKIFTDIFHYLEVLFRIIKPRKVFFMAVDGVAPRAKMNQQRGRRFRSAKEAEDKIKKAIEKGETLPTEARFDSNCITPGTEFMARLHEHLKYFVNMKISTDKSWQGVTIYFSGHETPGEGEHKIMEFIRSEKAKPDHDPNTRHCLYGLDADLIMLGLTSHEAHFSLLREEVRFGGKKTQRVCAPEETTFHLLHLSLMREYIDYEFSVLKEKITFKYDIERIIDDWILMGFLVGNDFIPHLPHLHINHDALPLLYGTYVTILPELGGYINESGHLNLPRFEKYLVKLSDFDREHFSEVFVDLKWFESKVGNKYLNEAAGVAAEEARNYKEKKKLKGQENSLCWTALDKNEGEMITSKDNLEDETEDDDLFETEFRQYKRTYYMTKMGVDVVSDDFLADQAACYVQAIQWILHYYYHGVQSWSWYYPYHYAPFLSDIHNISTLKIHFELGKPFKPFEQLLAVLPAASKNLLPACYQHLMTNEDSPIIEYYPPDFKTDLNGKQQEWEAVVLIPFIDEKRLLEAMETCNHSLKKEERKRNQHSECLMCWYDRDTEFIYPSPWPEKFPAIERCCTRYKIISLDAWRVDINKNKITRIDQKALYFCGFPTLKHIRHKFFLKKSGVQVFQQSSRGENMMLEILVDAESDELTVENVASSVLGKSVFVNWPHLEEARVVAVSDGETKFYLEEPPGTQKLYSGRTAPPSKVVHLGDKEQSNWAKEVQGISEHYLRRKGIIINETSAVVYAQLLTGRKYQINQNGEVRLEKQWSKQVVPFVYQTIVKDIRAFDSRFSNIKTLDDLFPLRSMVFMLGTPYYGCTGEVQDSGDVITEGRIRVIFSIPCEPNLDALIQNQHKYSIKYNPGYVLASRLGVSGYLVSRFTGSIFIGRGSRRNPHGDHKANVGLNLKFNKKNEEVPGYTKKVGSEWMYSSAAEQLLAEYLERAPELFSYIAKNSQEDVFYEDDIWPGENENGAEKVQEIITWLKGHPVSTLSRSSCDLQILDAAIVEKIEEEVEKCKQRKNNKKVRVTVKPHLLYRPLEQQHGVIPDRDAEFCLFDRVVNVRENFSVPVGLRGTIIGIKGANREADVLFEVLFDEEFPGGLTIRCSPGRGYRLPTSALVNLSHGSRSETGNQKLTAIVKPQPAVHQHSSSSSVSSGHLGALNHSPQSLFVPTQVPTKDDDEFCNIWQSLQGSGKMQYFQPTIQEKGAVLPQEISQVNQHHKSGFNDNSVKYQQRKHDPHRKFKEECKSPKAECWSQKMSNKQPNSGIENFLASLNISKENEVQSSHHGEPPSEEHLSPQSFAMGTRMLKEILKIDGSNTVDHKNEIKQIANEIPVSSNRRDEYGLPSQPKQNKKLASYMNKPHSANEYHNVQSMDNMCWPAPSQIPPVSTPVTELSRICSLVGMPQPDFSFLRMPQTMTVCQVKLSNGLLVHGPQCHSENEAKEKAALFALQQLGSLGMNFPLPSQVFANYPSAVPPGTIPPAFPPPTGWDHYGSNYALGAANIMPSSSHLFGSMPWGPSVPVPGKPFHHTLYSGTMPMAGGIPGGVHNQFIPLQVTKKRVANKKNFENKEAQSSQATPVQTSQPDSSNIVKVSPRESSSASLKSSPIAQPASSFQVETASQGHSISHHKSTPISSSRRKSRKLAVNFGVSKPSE
UniProt O95232: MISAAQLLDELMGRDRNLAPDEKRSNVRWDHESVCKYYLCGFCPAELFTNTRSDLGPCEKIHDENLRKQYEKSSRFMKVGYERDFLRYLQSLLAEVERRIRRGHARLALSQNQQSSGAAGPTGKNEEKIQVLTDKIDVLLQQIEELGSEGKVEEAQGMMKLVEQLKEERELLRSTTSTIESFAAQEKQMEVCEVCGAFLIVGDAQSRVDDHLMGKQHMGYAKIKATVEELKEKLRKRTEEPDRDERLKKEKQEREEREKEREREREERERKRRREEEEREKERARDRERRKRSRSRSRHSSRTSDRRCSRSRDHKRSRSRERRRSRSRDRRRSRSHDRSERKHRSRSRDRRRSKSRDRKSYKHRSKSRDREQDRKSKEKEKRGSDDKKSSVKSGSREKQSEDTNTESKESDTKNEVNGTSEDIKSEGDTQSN
UniProt Q7RTR2: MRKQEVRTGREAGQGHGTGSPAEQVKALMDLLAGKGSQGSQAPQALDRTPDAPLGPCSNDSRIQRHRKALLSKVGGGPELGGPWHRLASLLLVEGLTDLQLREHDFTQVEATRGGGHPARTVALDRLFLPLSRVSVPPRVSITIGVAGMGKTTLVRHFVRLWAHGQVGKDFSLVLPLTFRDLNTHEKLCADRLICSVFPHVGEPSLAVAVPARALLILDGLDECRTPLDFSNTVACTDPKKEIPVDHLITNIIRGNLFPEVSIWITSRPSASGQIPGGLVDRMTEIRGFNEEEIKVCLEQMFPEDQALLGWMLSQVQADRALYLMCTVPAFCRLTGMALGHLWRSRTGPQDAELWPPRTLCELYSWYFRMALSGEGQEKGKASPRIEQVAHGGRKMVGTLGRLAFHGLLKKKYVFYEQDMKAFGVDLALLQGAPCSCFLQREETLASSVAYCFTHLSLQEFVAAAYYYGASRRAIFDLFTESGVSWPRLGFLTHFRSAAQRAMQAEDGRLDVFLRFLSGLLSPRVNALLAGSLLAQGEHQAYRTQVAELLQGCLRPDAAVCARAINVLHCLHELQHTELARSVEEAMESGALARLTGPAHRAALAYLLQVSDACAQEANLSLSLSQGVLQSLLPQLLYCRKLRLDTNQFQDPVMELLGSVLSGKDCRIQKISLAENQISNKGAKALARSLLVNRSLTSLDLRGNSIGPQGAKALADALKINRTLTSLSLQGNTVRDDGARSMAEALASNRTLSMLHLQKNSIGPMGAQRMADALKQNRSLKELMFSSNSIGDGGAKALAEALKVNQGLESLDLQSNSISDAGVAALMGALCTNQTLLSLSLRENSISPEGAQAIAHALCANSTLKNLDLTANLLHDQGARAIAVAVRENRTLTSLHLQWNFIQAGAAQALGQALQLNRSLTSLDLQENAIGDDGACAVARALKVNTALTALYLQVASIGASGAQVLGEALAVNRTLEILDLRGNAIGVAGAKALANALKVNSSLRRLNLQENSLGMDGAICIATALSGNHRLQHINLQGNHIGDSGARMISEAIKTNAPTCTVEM
UniProt P11940, whole entry: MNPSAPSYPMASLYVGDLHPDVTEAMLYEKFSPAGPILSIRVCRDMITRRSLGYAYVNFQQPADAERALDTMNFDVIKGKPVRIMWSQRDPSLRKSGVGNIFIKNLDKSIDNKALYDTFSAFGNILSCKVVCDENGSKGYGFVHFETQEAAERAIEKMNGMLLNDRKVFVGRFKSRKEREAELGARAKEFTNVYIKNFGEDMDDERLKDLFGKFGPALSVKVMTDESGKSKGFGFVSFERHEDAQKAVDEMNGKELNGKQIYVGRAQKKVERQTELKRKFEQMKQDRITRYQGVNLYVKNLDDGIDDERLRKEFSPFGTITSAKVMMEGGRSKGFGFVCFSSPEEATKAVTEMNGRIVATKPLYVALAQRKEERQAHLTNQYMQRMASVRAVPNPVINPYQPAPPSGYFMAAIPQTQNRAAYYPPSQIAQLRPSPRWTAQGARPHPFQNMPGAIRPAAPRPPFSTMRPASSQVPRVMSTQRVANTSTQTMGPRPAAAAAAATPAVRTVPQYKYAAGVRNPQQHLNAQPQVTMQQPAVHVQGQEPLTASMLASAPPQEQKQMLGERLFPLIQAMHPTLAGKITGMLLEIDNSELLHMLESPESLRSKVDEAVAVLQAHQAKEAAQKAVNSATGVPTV
UniProt Q06323: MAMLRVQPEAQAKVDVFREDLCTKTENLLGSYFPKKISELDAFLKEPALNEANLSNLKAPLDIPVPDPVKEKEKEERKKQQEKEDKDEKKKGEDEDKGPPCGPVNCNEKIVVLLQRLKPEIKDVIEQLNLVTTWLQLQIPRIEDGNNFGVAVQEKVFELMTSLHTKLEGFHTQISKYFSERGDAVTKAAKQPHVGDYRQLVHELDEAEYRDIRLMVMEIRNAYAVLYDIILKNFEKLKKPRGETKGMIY

Compound: Nc1nc2c(ncn2[C@@H]2O[C@H](COP(=O)(O)OP(=O)(O)OP(=O)(O)O)[C@@H](O)[C@H]2O)c(=O)[nH]1 [guanosine triphosphate]
Assay: NP40-soluble protein abundance relative to vehicle (solubility fold change) (ratio); higher = more soluble protein in presence of GTP
How it was run: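 Values are fold changes against the detergent-processed vehicle, based on vsn-normalised intensities. Jurkat crude lysate was treated at eight concentrations from 0.1 to 10 mM (10 min at room temperature, then 3 min at 37 °C), solubilised with 0.8% NP40 and benzonase, ultracentrifuged and analysed by TMT-labelled LC-MS/MS over three independent experiments.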

## H0YJ17 and related entries (UniProt Q8NEJ9)
concentration: 0.1mM
  NP40-soluble protein abundance: 0.963 ± 0.092
concentration: 0.5mM
  NP40-soluble protein abundance: 0.938 ± 0.16
concentration: 1mM
  NP40-soluble protein abundance: 1.21 ± 0.14
concentration: 2mM
  NP40-soluble protein abundance: 1.32 ± 0.032
concentration: 4mM
  NP40-soluble protein abundance: 1.35 ± 0.071
concentration: 6mM
  NP40-soluble protein abundance: 1.49 ± 0.067
concentration: 8mM
  NP40-soluble protein abundance: 1.31 ± 0.19
concentration: 10mM
  NP40-soluble protein abundance: 1.67 ± 0.091

## H3BPZ1 and related entries (UniProt Q9P035)
concentration: 0.1mM
  NP40-soluble protein abundance: 1.01 ± 0.025
concentration: 0.5mM
  NP40-soluble protein abundance: 1.04 ± 0.11
concentration: 1mM
  NP40-soluble protein abundance: 0.872 ± 0.052
concentration: 2mM
  NP40-soluble protein abundance: 0.904 ± 0.092
concentration: 4mM
  NP40-soluble protein abundance: 0.926 ± 0.082
concentration: 6mM
  NP40-soluble protein abundance: 0.96 ± 0.021
concentration: 8mM
  NP40-soluble protein abundance: 0.889 ± 0.083
concentration: 10mM
  NP40-soluble protein abundance: 0.846 ± 0.16

## H0Y9X1 and related entries (UniProt Q96EY4)
concentration: 0.1mM
  NP40-soluble protein abundance: 1.03 ± 0.069
concentration: 0.5mM
  NP40-soluble protein abundance: 0.968 ± 0.061
concentration: 1mM
  NP40-soluble protein abundance: 1.02 ± 0.061
concentration: 2mM
  NP40-soluble protein abundance: 1.01 ± 0.12
concentration: 4mM
  NP40-soluble protein abundance: 1.18 ± 0.15
concentration: 6mM
  NP40-soluble protein abundance: 1.22 ± 0.082
concentration: 8mM
  NP40-soluble protein abundance: 1.43 ± 0.099
concentration: 10mM
  NP40-soluble protein abundance: 1.48 ± 0.12

## I3L2J0 (UniProt Q96RK0)
concentration: 0.1mM
  NP40-soluble protein abundance: 0.965 ± 0.013
concentration: 0.5mM
  NP40-soluble protein abundance: 0.997 ± 0.073
concentration: 1mM
  NP40-soluble protein abundance: 1.02 ± 0.12
concentration: 2mM
  NP40-soluble protein abundance: 0.954 ± 0.11
concentration: 4mM
  NP40-soluble protein abundance: 0.927 ± 0.069
concentration: 6mM
  NP40-soluble protein abundance: 0.963 ± 0.087
concentration: 8mM
  NP40-soluble protein abundance: 0.976 ± 0.053
concentration: 10mM
  NP40-soluble protein abundance: 0.982 ± 0.048

## H0YJ34 and related entries (UniProt Q96AC1)
concentration: 0.1mM
  NP40-soluble protein abundance: 1.05 ± 0.081
concentration: 0.5mM
  NP40-soluble protein abundance: 0.992 ± 0.056
concentration: 1mM
  NP40-soluble protein abundance: 0.925 ± 0.023
concentration: 2mM
  NP40-soluble protein abundance: 0.954 ± 0.093
concentration: 4mM
  NP40-soluble protein abundance: 0.932 ± 0.061
concentration: 6mM
  NP40-soluble protein abundance: 0.929 ± 0.09
concentration: 8mM
  NP40-soluble protein abundance: 0.905 ± 0.045
concentration: 10mM
  NP40-soluble protein abundance: 0.887 ± 0.095

## J3KPC5 and related entries (UniProt P47736)
concentration: 0.1mM
  NP40-soluble protein abundance: 1.01 ± 0.065
concentration: 0.5mM
  NP40-soluble protein abundance: 1.03 ± 0.069
concentration: 1mM
  NP40-soluble protein abundance: 0.991 ± 0.1
concentration: 2mM
  NP40-soluble protein abundance: 0.949 ± 0.093
concentration: 4mM
  NP40-soluble protein abundance: 0.941 ± 0.05
concentration: 6mM
  NP40-soluble protein abundance: 0.961 ± 0.11
concentration: 8mM
  NP40-soluble protein abundance: 0.968 ± 0.085
concentration: 10mM
  NP40-soluble protein abundance: 0.923 ± 0.053

## H7C5E4 and related entries (UniProt Q8IZH2)
concentration: 0.1mM
  NP40-soluble protein abundance: 1.03 ± 0.034
concentration: 0.5mM
  NP40-soluble protein abundance: 1.07 ± 0.048
concentration: 1mM
  NP40-soluble protein abundance: 1.05 ± 0.039
concentration: 2mM
  NP40-soluble protein abundance: 1.07 ± 0.05
concentration: 4mM
  NP40-soluble protein abundance: 1.12 ± 0.067
concentration: 6mM
  NP40-soluble protein abundance: 1.1 ± 0.065
concentration: 8mM
  NP40-soluble protein abundance: 1.15 ± 0.14
concentration: 10mM
  NP40-soluble protein abundance: 1.13 ± 0.078

## J3KPP4 and related entries (UniProt O95232)
concentration: 0.1mM
  NP40-soluble protein abundance: 1.13 ± 0.027
concentration: 0.5mM
  NP40-soluble protein abundance: 1.45 ± 0.062
concentration: 1mM
  NP40-soluble protein abundance: 1.54 ± 0.1
concentration: 2mM
  NP40-soluble protein abundance: 1.54 ± 0.095
concentration: 4mM
  NP40-soluble protein abundance: 1.56 ± 0.12
concentration: 6mM
  NP40-soluble protein abundance: 1.63 ± 0.13
concentration: 8mM
  NP40-soluble protein abundance: 1.72 ± 0.19
concentration: 10mM
  NP40-soluble protein abundance: 1.74 ± 0.18

## H3BLT9 and related entries (UniProt Q7RTR2)
concentration: 0.1mM
  NP40-soluble protein abundance: 1.06 ± 0.066
concentration: 0.5mM
  NP40-soluble protein abundance: 1.05 ± 0.066
concentration: 1mM
  NP40-soluble protein abundance: 1 ± 0.069
concentration: 2mM
  NP40-soluble protein abundance: 1.04 ± 0.078
concentration: 4mM
  NP40-soluble protein abundance: 1.02 ± 0.035
concentration: 6mM
  NP40-soluble protein abundance: 1.03 ± 0.039
concentration: 8mM
  NP40-soluble protein abundance: 1.05 ± 0.02
concentration: 10mM
  NP40-soluble protein abundance: 0.995 ± 0.06

## K7ELC7 and related entries (UniProt P61353)
concentration: 0.1mM
  NP40-soluble protein abundance: 1 ± 0.026
concentration: 0.5mM
  NP40-soluble protein abundance: 1 ± 0.03
concentration: 1mM
  NP40-soluble protein abundance: 1.01 ± 0.073
concentration: 2mM
  NP40-soluble protein abundance: 0.959 ± 0.089
concentration: 4mM
  NP40-soluble protein abundance: 0.864 ± 0.074
concentration: 6mM
  NP40-soluble protein abundance: 0.843 ± 0.11
concentration: 8mM
  NP40-soluble protein abundance: 0.795 ± 0.06
concentration: 10mM
  NP40-soluble protein abundance: 0.841 ± 0.082

## H0YAR2 and related entries (UniProt P11940)
concentration: 0.1mM
  NP40-soluble protein abundance: 0.985 ± 0.065
concentration: 0.5mM
  NP40-soluble protein abundance: 0.993 ± 0.061
concentration: 1mM
  NP40-soluble protein abundance: 1.01 ± 0.071
concentration: 2mM
  NP40-soluble protein abundance: 0.967 ± 0.07
concentration: 4mM
  NP40-soluble protein abundance: 1.02 ± 0.058
concentration: 6mM
  NP40-soluble protein abundance: 1.03 ± 0.066
concentration: 8mM
  NP40-soluble protein abundance: 1.07 ± 0.036
concentration: 10mM
  NP40-soluble protein abundance: 1.03 ± 0.039

## H0YKK6 and related entries (UniProt Q06323)
concentration: 0.1mM
  NP40-soluble protein abundance: 0.871 ± 0.14
concentration: 0.5mM
  NP40-soluble protein abundance: 0.812 ± 0.062
concentration: 1mM
  NP40-soluble protein abundance: 1.04 ± 0.15
concentration: 2mM
  NP40-soluble protein abundance: 1.01 ± 0.079
concentration: 4mM
  NP40-soluble protein abundance: 0.996 ± 0.11
concentration: 6mM
  NP40-soluble protein abundance: 0.991 ± 0.08
concentration: 8mM
  NP40-soluble protein abundance: 0.926 ± 0.17
concentration: 10mM
  NP40-soluble protein abundance: 1.08 ± 0.2

## J3KSS1 and related entries (UniProt Q8TF05)
concentration: 0.1mM
  NP40-soluble protein abundance: 1.04 ± 0.041
concentration: 0.5mM
  NP40-soluble protein abundance: 1.05 ± 0.0072
concentration: 1mM
  NP40-soluble protein abundance: 1.02 ± 0.038
concentration: 2mM
  NP40-soluble protein abundance: 0.99 ± 0.038
concentration: 4mM
  NP40-soluble protein abundance: 0.98 ± 0.04
concentration: 6mM
  NP40-soluble protein abundance: 0.97 ± 0.043
concentration: 8mM
  NP40-soluble protein abundance: 0.963 ± 0.019
concentration: 10mM
  NP40-soluble protein abundance: 0.948 ± 0.024
